# Results as given in PubChem BioAssay (EPA / NIEHS).
# Chains of the proteins cited; added tags and fusions are not shown.
# UniProt P04637, whole entry, looked up: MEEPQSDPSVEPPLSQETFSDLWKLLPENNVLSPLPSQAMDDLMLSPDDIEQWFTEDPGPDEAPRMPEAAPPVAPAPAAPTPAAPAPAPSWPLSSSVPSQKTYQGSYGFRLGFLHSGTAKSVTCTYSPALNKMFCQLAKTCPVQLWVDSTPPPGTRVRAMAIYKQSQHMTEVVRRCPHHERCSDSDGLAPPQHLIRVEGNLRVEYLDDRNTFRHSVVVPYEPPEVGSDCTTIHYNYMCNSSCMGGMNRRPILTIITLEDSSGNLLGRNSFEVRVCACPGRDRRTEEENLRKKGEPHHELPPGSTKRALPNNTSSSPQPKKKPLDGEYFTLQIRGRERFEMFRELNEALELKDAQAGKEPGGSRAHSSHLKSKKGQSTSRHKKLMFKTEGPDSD
# Values joined by “and” are separate entries in the source; they are usually repeats but may differ in a detail not shown here. Identical values can stand only once. Inconclusive results, whose numbers are uncertain, are shown with a selection of clear calls. A potency beside an inconclusive call is a rough fit, not a confirmed value. The source holds several records for some structures; these can differ, active in one and inactive in another. Active and inactive are the calls of the source. How the source made its calls: active means hit-call score of the fitted dose curve at least 0.9, where 1 is the maximum; inconclusive means response in the unintended direction; inactive means score below 0.9.
# Tests used:
# [1] = TOX21_p53_BLA_p4_viability: Viability Assessment in the Tox21 HCT-116 p53 Agonism Beta-lactamase Assay, Phase 4 (AID 2283597);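 further: hits lower the luminescence signal meaning cytotoxicity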
# Method in brief: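 Cells plated, 5 h pre-incubation; DMSO compounds pinned (217-fold dilution); 16 h, 37C/5% CO2; CCF4-AM 2 h RT; CellTiter-Glo 30 min RT; luminescence read.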
# [2] = TOX21_p53_BLA_p5_viability: Viability Assessment in the Tox21 HCT-116 p53 Agonism Beta-lactamase Assay, Phase 5 (AID 2283600)
# Method in brief: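 4000 cells/well; 5 h pre-incubation; DMSO compounds pin-transferred, 217-fold dilution; 16 h, 37C/5% CO2; CCF4-AM 2 h RT; CellTiter-Glo 30 min RT; luminescence.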
# [3] = molecular target: Cellular tumor antigen p53 (Homo sapiens) (UniProt P04637); test: TOX21_p53_BLA_p4_ratio: Tox21 HCT-116 p53 Agonism Beta-lactamase Assay, Ratio, Phase 4 (AID 2283601)
# Method in brief: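 Signal is the blue/green (460nm/530nm) ratio of cleaved versus uncleaved CCF4-AM substrate, read after 2 h substrate loading. Cells were HCT116 carrying the p53-responsive beta-lactamase reporter, dosed 16 h at 37C, 5% CO2; CellTiter-Glo measured in parallel.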
# [4] = Tanguay_ZF_120hpf_EYE_legacy: (Legacy) Oregon State University Tanguay Lab 120 Hour Post-fertilization zebrafish Assay for Eye Malformation (AID 2283636)
# Method in brief: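 Read-out is binary presence or absence of eye malformation, scored by brightfield microscopy at 120 hpf. Single larvae were exposed from 6 hpf in embryo medium containing 0.64% DMSO, with DMSO as baseline.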
compound,measurement,setting,value
CCCCCCCCCCCSCC(=O)O,AC50,[1],active: 84 µM
same,AC50,[2],active: 74 µM
same,AC50,[3],active: 86.7 µM
CC[N+](C)(CC)CC,AC50,[1],inconclusive: 46.1 µM
same,AC50,[2],inconclusive: 46.1 µM
Cc1ccccc1C,AC50,[1],inconclusive: 0.0103 µM
same,outcome,[2],inactive
COC(=O)c1ccc(C=O)cc1,AC50,[1],inconclusive: 48.4 µM and inconclusive: 46.1 µM
same,AC50,[2],inconclusive: 46.1 µM
O=[N+]([O-])c1ccccc1C(F)(F)F,AC50,[1],inconclusive: 46.1 µM
same,AC50,[2],inconclusive: 45.3 µM
same,outcome,[2],inactive
same,AC50,[3],inconclusive: 46.1 µM
CC(O)COc1ccccc1 (stereo not drawn),AC50,[1],inconclusive: 46.1 µM and inconclusive: 46.6 µM and inconclusive: 2.58 nM
same,AC50,[2],inconclusive: 46.1 µM and inconclusive: 2.07 nM
same,outcome,[2],inactive
same,AC50,[3],inconclusive: 46.6 µM
COc1ccc([C@@H]2CC(=O)c3c(O)cc(O[C@@H]4O[C@H](CO[C@@H]5O[C@@H](C)[C@H](O)[C@@H](O)[C@H]5O)[C@@H](O)[C@H](O)[C@H]4O)cc3O2)cc1OC,AC50,[1],inconclusive: 45.9 µM
same,AC50,[2],inconclusive: 2.49 µM
same,AC50,[3],inconclusive: 40.6 µM and inconclusive: 45.9 µM
CC(C#N)(CCC(=O)O)N=NC(C)(C#N)CCC(=O)O (stereo not drawn),AC50,[1],inconclusive: 14.2 µM
same,outcome,[2],inactive
FC(F)(F)C(F)(F)C(F)(F)C(F)(F)CCI,AC50,[1],inconclusive: 19.8 µM
same,outcome,[2],inactive
CCCCCCCCCCCCCC,AC50,[1],inconclusive: 46.1 µM
same,AC50,[2],inconclusive: 46.1 µM
CC(=O)OCCOCCOCCOC(C)=O,outcome,[1],inactive
same,AC50,[2],inconclusive: 465 nM and inconclusive: 45.6 µM
same,AC50,[3],inconclusive: 45.6 µM
COc1ccc(C(=O)/C(Br)=C\C(=O)O)cc1,AC50,[1],active: 76.7 µM and active: 44.5 µM
same,AC50,[2],active: 39.1 µM
same,AC50,[3],active: 60 µM and active: 27.2 µM
Cc1ccc2c(c1)C(=O)OC2=O,outcome,[1],inactive
same,outcome,[2],inactive
same,AC50,[3],inconclusive: 46.1 µM
COCC(C)N (stereo not drawn),AC50,[1],inconclusive: 46.1 µM
same,outcome,[2],inactive
same,AC50,[3],inconclusive: 45.1 µM
Cc1ccc(C)o1,AC50,[1],inconclusive: 46.4 µM
same,AC50,[2],inconclusive: 46.4 µM
same,outcome,[3],inactive
CN(C)Cc1cc(CN(C)C)c(O)c(CN(C)C)c1,outcome,[1],inactive
same,AC50,[2],inconclusive: 46.1 µM
same,outcome,[2],inactive
same,AC50,[3],inconclusive: 46.1 µM
CCC(=O)O[C@@H]1C[C@H]2CC[C@]1(C)C2(C)C,AC50,[1],inconclusive: 3.36 µM
same,AC50,[2],inconclusive: 82.9 µM
CCOC(=O)C(=O)OCC,AC50,[1],inconclusive: 46.1 µM
same,AC50,[2],inconclusive: 46.1 µM
same,AC50,[3],inconclusive: 46.1 µM
CC(=O)Nc1ccc(S(N)(=O)=O)cc1,AC50,[1],inconclusive: 46.1 µM
same,AC50,[2],inconclusive: 46.1 µM
same,AC50,[3],inconclusive: 46.1 µM
Cc1ccc(O)c(C(C)(C)C)c1,AC50,[1],active: 46.1 µM and active: 52.5 µM
same,AC50,[2],active: 42.9 µM
same,outcome,[2],inactive
same,AC50,[3],active: 72.2 µM and active: 68.5 µM
O=C(Nc1ccc([N+](=O)[O-])cc1Cl)c1cc(Cl)ccc1O,AC50,[1],active: 235 nM and active: 92 nM
same,AC50,[2],active: 0.174 µM
same,AC50,[3],active: 0.317 µM
Nc1nc2ncc(CNc3ccc(C(=O)N[C@@H](CCC(=O)O)C(=O)O)cc3)nc2c(=O)[nH]1,AC50,[1],inconclusive: 23 µM
same,AC50,[2],inconclusive: 46.1 µM and inconclusive: 23 µM
CC(=O)C1(C)CC2=C(CCCC2(C)C)CC1C (stereo not drawn),AC50,[1],inconclusive: 44.2 µM
same,outcome,[2],inactive
same,AC50,[3],inconclusive: 44.2 µM
CCCCCCCCCCCCCCCCCC(=O)OCC(CC)CCCC (stereo not drawn),outcome,[1],inactive
same,AC50,[2],inconclusive: 46.1 µM
same,outcome,[3],inactive
CC(C)OC=O,outcome,[1],inactive
same,AC50,[2],inconclusive: 48.5 µM
O=C(O)c1cc(O)c2ccccc2c1O,AC50,[1],inconclusive: 46.1 µM
same,outcome,[2],inactive
same,outcome,[3],inactive
CC/C=C\CC1=C(C)CCC1=O,AC50,[1],inconclusive: 69.5 µM
same,outcome,[2],inactive
same,outcome,[3],inactive
OC[C@@H](O)[C@@H](O)[C@H](O)[C@@H](O)CO,AC50,[1],inconclusive: 44.5 µM and inconclusive: 3.39 µM
same,AC50,[2],inconclusive: 44.5 µM
same,outcome,[2],inactive
same,outcome,[3],inactive
CCOCCOCCOCC,AC50,[1],inconclusive: 46.1 µM
same,AC50,[2],inconclusive: 46.1 µM
same,AC50,[3],inconclusive: 46.1 µM
O=C(O)C1CCC(C(=O)O)CC1 (stereo not drawn),AC50,[1],active: 82.4 µM
same,AC50,[2],inconclusive: 46 µM
same,AC50,[3],active: 85.8 µM
CCN(CC)c1ccc2c(C)cc(=O)oc2c1,outcome,[1],inactive
same,AC50,[2],inconclusive: 46.4 µM
same,outcome,[2],inactive
same,AC50,[3],active: 41.6 µM and active: 36 µM
Cc1ccc(O)cc1,AC50,[1],inconclusive: 3.16 µM and inconclusive: 47.6 µM
same,AC50,[2],inconclusive: 4.57 µM
same,outcome,[2],inactive
same,outcome,[3],inactive
same,AC50,[4],inconclusive: 119 nM
CC1=NN(c2ccc(S(=O)(=O)O)cc2)C(=O)C1,AC50,[1],inconclusive: 46.1 µM
same,outcome,[2],inactive
same,AC50,[3],inconclusive: 46.1 µM
